# From PubChem BioAssay AID248 (DTP/NCI, 2004)
# The list shows only some results of the screen, not a fair sample: it is rich in T/C values a quarter to a half above the control, in often repeated tests (any T/C) and in doses without a T/C. Other doses and runs of a compound stand elsewhere. T/C: endpoint of the treated group in % of that of the vehicle group. Some entries give survivors of the animals treated and no T/C: the source holds a T/C of zero for them, seemingly a mark for toxic or unscored doses. Some doses without a T/C left all or most animals alive at the check, yet need not have been tolerated: survival well below the control is almost never listed, so the zero probably covers shortened survival too. Survivors were counted at the toxicity check, usually on the fifth day, unless a day is given; later deaths do not show. Schedules are NCI's codes, taken here to give the interval after Q, in days (D) or hours (H), and the number of doses after X. Some schedules carry Z or #; the key to these is not given. For survival time, this PubChem deposit counts one and a half times the control or more as active, and values a quarter to a half above the control carry no call in these data; other NCI protocols may use other cut-offs.
# Tested on: L1210 leukemia ip in BDF1 mice, survival T/C
# Experiment: NCI In Vivo Anticancer Drug Screen. Data for tumor model L1210 Leukemia (intraperitoneal) in B6D2F1 (BDF1) mice
# Settings: T/C endpoint: mean survival time, higher T/C = longer survival
# [1] = dose: 400.0 mg/kg/injection, schedule: Q01DX001 (ip), vehicle: saline with Tween-80
compound,measurement,setting,value
O=C(CCN1CC1)OC1CCCC1,survivor count,"dose: 5.0 mg/kg/injection, schedule: Q01DX009 (ip), vehicle: Klucel (hydroxypropylcellulose) (HPC)",6 of 6
same,survivor count,"dose: 10.0 mg/kg/injection, schedule: Q01DX009 (ip), vehicle: Klucel (hydroxypropylcellulose) (HPC)",5 of 6
same,survivor count,"dose: 20.0 mg/kg/injection, schedule: Q01DX009 (ip), vehicle: Klucel (hydroxypropylcellulose) (HPC)",6 of 6
same,survivor count,"dose: 40.0 mg/kg/injection, schedule: Q01DX009 (ip), vehicle: Klucel (hydroxypropylcellulose) (HPC)",0 of 6
same,survivor count,"dose: 80.0 mg/kg/injection, schedule: Q01DX009 (ip), vehicle: Klucel (hydroxypropylcellulose) (HPC)",0 of 6
same,survivor count,"dose: 200.0 mg/kg/injection, schedule: Q04DX003 (ip), vehicle: Klucel (hydroxypropylcellulose) (HPC)",2 of 6
same,survivor count,"dose: 400.0 mg/kg/injection, schedule: Q04DX003 (ip), vehicle: Klucel (hydroxypropylcellulose) (HPC)",0 of 6
CCC(C)C(CN)(CCN(C)CC)c1cccc2ccccc12 (stereo not given),survivor count,"dose: 200.0 mg/kg/injection, schedule: Q04DX003 (ip), vehicle: saline with Tween-80",3 of 6
same,survivor count,"dose: 400.0 mg/kg/injection, schedule: Q04DX003 (ip), vehicle: saline with Tween-80",0 of 6
O=c1[nH]c(=O)c2nc[nH]c(=O)c2[nH]1,survivor count,"dose: 300.0 mg/kg/injection, schedule: Q01DX009 (ip), vehicle: Klucel (hydroxypropylcellulose) (HPC)",6 of 6
[C-]#[N+]C(=C\c1ccc(O)cc1)/C(=C/c1ccc(O)cc1)[N+]#[C-],survivor count,"dose: 100.0 mg/kg/injection, schedule: Q04DX002 (ip), vehicle: Klucel (hydroxypropylcellulose) (HPC)",0 of 3
same,survivor count,"dose: 200.0 mg/kg/injection, schedule: Q04DX002 (ip), vehicle: Klucel (hydroxypropylcellulose) (HPC)",3 of 3
same,survivor count,"dose: 400.0 mg/kg/injection, schedule: Q04DX002 (ip), vehicle: Klucel (hydroxypropylcellulose) (HPC)",0 of 3
CCCCCCCCCCCCCCCC1CCCC(C)N1 (stereo not given),survivor count,"dose: 50.0 mg/kg/injection, schedule: Q04DX002 (ip), vehicle: saline with Tween-80",1 of 3
c1ccc(-c2ccno2)cc1,survivor count,"dose: 150.0 mg/kg/injection, schedule: Q01DX009 (ip), vehicle: saline with Tween-80",0 of 6
same,survivor count,"dose: 300.0 mg/kg/injection, schedule: Q01DX009 (ip), vehicle: saline with Tween-80",0 of 6
CCNC(C)(C)C(=O)c1ccc(Cl)s1,survivor count,"dose: 400.0 mg/kg/injection, schedule: Q01DX009 (ip), vehicle: saline with Tween-80",3 of 6
CCCNC(=O)c1cc(NC(=O)Nc2ccc(C3=NCCCN3)cc2)cc(NC(=O)Nc2ccc(C3=NCCCN3)cc2)c1,survivor count,"dose: 168.0 mg/kg/injection, schedule: Q01DX Z (ip), vehicle: carboxymethylcellulose (CMC)",6 of 6
O=C1C(NC(=O)C2CCCCC2)=C(N2CC2)C(=O)C(NC(=O)C2CCCCC2)=C1N1CC1,T/C,"dose: 200.0 mg/kg/injection, schedule: Q01DX Z (ip), vehicle: Klucel (hydroxypropylcellulose) (HPC)",125 % of control
CC(=O)C(C(C)=O)C(c1ccccc1)C(C(C)=O)C(C)=O,survivor count,"dose: 400.0 mg/kg/injection, schedule: Q01DX009 (ip), vehicle: Klucel (hydroxypropylcellulose) (HPC)",3 of 6
CC(=O)OC12CC[N+]3(C)CCCCC3C1=Nc1ccccc12 (stereo not given),survivor count,"dose: 50.0 mg/kg/injection, schedule: Q04DX003 (ip), vehicle: saline",6 of 6
same,survivor count,"dose: 100.0 mg/kg/injection, schedule: Q01DX001 (ip), vehicle: carboxymethylcellulose (CMC)",0 of 4
same,survivor count,"dose: 100.0 mg/kg/injection, schedule: Q04DX003 (ip), vehicle: saline",0 of 6
same,survivor count,"dose: 200.0 mg/kg/injection, schedule: Q01DX001 (ip), vehicle: carboxymethylcellulose (CMC)",0 of 4
same,survivor count,"dose: 400.0 mg/kg/injection, schedule: Q01DX001 (ip), vehicle: carboxymethylcellulose (CMC)",0 of 4
COc1ccccc1/C=N/NC(=O)c1cccc2ccccc12,survivor count,"dose: 100.0 mg/kg/injection, schedule: Q01DX001 (ip), vehicle: saline",4 of 4
same,survivor count,"dose: 200.0 mg/kg/injection, schedule: Q01DX001 (ip), vehicle: saline",4 of 4
O=C(NS(=O)(=O)c1ccc(Cl)c(Cl)c1)NS(=O)(=O)c1ccc(Cl)c(Cl)c1,survivor count,[1],3 of 6
CNC(=O)NC1ON=C(c2ccccc2)C1C(=O)NC (stereo not given),survivor count,[1],3 of 6
CN(C)CCC1(c2ccccc2)C=Cc2ccccc21 (stereo not given),survivor count,"dose: 100.0 mg/kg/injection, schedule: Q01DX009 (ip), vehicle: saline",3 of 6
same,survivor count,"dose: 200.0 mg/kg/injection, schedule: Q01DX009 (ip), vehicle: saline",0 of 6
same,survivor count,"dose: 400.0 mg/kg/injection, schedule: Q01DX009 (ip), vehicle: saline",0 of 6
COc1ccccc1/C=N\N=C(N/N=C/c1ccccc1OC)N/N=C/c1ccccc1OC,survivor count,"dose: 240.0 mg/kg/injection, schedule: Q01DX Z (oral), vehicle: methylcellulose (MC)",5 of 6
same,survivor count,"dose: 720.0 mg/kg/injection, schedule: Q01DX Z (ip), vehicle: methylcellulose (MC)",3 of 6
same,survivor count,"dose: 960.0 mg/kg/injection, schedule: Q01DX Z (ip), vehicle: methylcellulose (MC)",5 of 6
